Data: patent US20160340418A1 (US Dept. of Health and Human Services, published 2016)
These are yes or no findings as the source states them, for the method shown. Some entries that bind do so weakly or less than the wild type. Sequences can lack the tags named with a protein.

Experiments:
[1] = molecular target: T1, matrilin-3 as present in mouse cartilage tissue (growth plate cartilage lysate, embryo sections) (mouse) (UniProt O35701); assay: immunohistochemistry on frozen E15 mouse embryo sections
T1 sequence (looked up): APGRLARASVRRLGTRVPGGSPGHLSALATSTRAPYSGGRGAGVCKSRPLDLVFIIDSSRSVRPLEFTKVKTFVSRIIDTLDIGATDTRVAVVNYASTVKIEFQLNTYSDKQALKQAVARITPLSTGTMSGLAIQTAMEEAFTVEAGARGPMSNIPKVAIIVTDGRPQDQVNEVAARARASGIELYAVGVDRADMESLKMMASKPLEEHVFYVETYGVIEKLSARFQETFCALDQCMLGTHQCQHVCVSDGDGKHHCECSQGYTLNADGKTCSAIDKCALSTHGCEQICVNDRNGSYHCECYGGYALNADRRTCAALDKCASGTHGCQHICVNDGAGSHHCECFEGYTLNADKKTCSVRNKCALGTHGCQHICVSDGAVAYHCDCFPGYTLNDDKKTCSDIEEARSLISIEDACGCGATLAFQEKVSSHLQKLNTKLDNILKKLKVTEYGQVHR

[2] = molecular target: T1, matrilin-3 as present in mouse cartilage tissue (growth plate cartilage lysate, embryo sections) (mouse); assay: ELISA on coated tissue lysates of 4-day old mice, scFv-Fc supernatant, HRP anti-Fc
[3] = molecular target: T1, matrilin-3 as present in mouse cartilage tissue (growth plate cartilage lysate, embryo sections) (mouse); assay: ELISA on coated tissue homogenates
[4] = molecular target: T1, matrilin-3 as present in mouse cartilage tissue (growth plate cartilage lysate, embryo sections) (mouse); assay: ELISA on coated organ lysates

Measured: binding

B1: matrilin-3-binding antibody fragment 22 (clone 22 scFv fused with human IgG1 Fc fragment) (Fc fusion)
scFv: LQQSGPGLVKPSQTLSLTCAISGDSVSSNSAAWNWIRQSPSRGLEWLGRTYYGSKWYNDYAPSVKSRISINPDTSKNQFSLQLNSVTPEDTAVYYCTRGIWNAFDIWGQGTMVTVSSGGGGSGGGASGGGGSSSELTQDPAVSVALGQTVRITCQGDSLRSYYASWYQQKPGQAPLLVIYDRDNRPSGIPDRFSGSSSGNTASLTITGAQAEDEADYYCQSYDTSLSWVFGGGTQLTVL
notes: Tested as scFv-Fc; not shown: human IgG1 Fc fragment encoded by the modified pSecTagB vector; Avi tag downstream of the Fc in the vector
binds: all assays above
